# Assay results as given in PubChem BioAssay AID651768 (National Center for Advancing Translational Sciences (NCATS), 2012).
# By UniProt entry, the sequences of proteins in these tests, tags left out.
# UniProt Q14191, whole entry, looked up: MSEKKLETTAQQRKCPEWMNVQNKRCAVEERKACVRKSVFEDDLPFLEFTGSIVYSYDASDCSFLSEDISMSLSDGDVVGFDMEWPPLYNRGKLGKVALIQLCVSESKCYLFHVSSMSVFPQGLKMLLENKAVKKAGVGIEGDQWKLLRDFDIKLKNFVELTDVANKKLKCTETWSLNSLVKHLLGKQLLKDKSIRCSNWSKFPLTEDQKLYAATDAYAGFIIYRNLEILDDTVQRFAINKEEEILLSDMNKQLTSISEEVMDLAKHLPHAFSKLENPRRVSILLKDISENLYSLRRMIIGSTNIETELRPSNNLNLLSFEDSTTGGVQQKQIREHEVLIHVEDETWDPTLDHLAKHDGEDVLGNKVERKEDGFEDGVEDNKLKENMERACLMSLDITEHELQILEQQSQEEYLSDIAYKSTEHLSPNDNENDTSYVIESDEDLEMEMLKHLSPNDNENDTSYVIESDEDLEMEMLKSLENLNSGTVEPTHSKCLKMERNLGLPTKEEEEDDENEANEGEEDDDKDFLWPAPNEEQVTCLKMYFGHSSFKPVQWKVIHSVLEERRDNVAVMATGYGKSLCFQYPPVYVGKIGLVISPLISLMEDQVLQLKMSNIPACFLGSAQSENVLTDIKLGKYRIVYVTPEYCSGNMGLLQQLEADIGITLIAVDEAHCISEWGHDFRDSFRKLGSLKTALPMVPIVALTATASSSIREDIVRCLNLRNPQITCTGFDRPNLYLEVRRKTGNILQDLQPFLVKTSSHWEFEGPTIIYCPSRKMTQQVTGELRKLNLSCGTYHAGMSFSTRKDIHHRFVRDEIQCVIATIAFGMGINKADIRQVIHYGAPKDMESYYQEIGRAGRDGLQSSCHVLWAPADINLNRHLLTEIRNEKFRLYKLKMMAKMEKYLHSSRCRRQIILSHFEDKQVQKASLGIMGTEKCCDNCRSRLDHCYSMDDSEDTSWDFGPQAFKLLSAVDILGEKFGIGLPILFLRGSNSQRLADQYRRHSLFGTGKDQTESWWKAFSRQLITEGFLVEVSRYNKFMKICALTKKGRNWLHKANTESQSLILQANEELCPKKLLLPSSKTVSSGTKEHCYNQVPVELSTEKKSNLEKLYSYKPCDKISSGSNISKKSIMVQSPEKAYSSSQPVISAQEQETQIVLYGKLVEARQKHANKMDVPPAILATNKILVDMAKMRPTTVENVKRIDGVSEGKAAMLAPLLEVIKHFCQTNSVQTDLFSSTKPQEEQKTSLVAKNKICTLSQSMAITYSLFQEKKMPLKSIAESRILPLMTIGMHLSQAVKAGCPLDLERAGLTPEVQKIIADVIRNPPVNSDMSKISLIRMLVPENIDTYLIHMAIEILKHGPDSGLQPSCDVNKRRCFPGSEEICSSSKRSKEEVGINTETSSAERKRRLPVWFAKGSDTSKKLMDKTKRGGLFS
# Among all 360,000 compounds or so, about 1,700 (0.47%) were called active. The inconclusive results got no clear call from the source; some entries with a clear call stand among them for comparison. The call rests on the fitted dose curve; in most records, active means well fitted inhibition curve with a large enough effect; inconclusive means small, poorly fitted or top-dose-only effect; inactive means no such curve, though single readings can be large or run the other way. Where the call is inconclusive, the potency comes from a doubtful curve fit.
# Target: Bifunctional 3'-5' exonuclease/ATP-dependent helicase WRN (Homo sapiens) (UniProt Q14191)
# Assay: qHTS for Inhibitors of WRN Helicase; further: nearly all actives have a fitted effect of over 55% in size
# Details: WRN helicase unwinding, fluorescent forked duplex, kinetic; activity change, negative = inhibition: at 114 µM (top of the series) unless noted
# Method in brief: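 WRN at 20 nM final preincubated with compound 15 min at room temperature; reaction started with 100 nM fluorophore/quencher forked duplex oligonucleotide and 2 mM ATP final. Unwinding followed kinetically by red fluorescence (ex 525, em 598 nm).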
# On the % scale 0 is the no-effect control and ±100 the full control effect; potency means the concentration at half of the fitted maximal effect.
Compound,"activity change, negative = inhibition",Potency
O=C(/C=C/c1c(F)cccc1Cl)c1ccc(O)cc1,inactive: -6.12%,
CCCN(CC(=O)Nc1ccccc1C)C(=O)c1cccc(-n2cnnn2)c1,inactive: -10.7%,
O=C(COC(=O)COc1ccccc1)Nc1ncc([N+](=O)[O-])s1,,"inconclusive: 56.2 µM [inhibitor, partial curve]"
CCC(=O)Nc1nc(=S)ss1,,"inconclusive: 70.8 µM [inhibitor, single point]"
CN1CCN(S(=O)(=O)c2ccc(NC(=O)c3ccccc3Cl)cc2)CC1,inactive: -4.89% [at 57.1 µM],
CCn1c(C)c(C2=CCN(S(=O)(=O)c3ccc(C)cc3)CC2)c2ccccc21,,"inconclusive: 25.1 µM [inhibitor, full curve]"
Cc1ccccc1-n1sc2cc(F)ccc2c1=O,,active: 14.1 µM
CCn1cc(C(=O)O)c(=O)c2cc(F)c(N/N=C/c3ccccc3[N+](=O)[O-])cc21,,"inconclusive: 10.6 µM [inhibitor, partial curve]"
Cc1cccnc1NC(=O)CNC(=O)c1sc2ccccc2c1Cl,inactive: 7.32%,
O=C(COC(=O)c1ccccn1)Nc1cccc(Cl)c1Cl,inactive: 7.26%,
Cc1ccc(NC(=O)C(C)OC(=O)CCNS(=O)(=O)c2ccc(C)cc2)cc1 (centres undefined),,"inconclusive: 10 µM [inhibitor, partial curve]"
COc1ccc(C2C(C#N)=C(N)Oc3c2c(C)nn3-c2ccccc2)cc1Cn1nc(C)c([N+](=O)[O-])c1C (centres undefined),inactive: -23.5%,
Cc1ccc(NC(=O)N/C=C/c2ccco2)cc1,,"inconclusive: 28.2 µM [inhibitor, full curve]"
COc1ccc(N2CCN(CC(=O)Nc3nc(C)cs3)CC2)cc1,,"inconclusive: 10 µM [inhibitor, full curve, poor fit]"
CC(C)(C)OC(=O)N[C@@H](Cc1ccccc1)c1nnc(S(=O)(=O)Cc2cccc(F)c2)o1,,"inconclusive: 50.1 µM [inhibitor, partial curve]"
Cc1cccc(N2C(=O)C=CC2=O)c1,,active: 44.7 µM
O=C(Nc1ccccc1O)c1cccc(S(=O)(=O)Nc2ccccc2O)c1,,"inconclusive: 5.01 µM [inhibitor, full curve, poor fit]"
CCOC(=O)n1cc(-c2cnc(CNC(=O)C(C)(c3ccccc3)c3ccccc3)o2)c2ccccc21,inactive: -5.07%,
NCCCS(=O)(=O)O,,inactive
O=C(c1ccc(F)cc1)N1CCN(Cc2ccccc2)CC1,,"inconclusive: 79.4 µM [inhibitor, single point]"
Cc1cc(C)c2nc(SCC(=O)NCC3CCCO3)c(C#N)cc2c1 (centres undefined),,"inconclusive: 70.8 µM [inhibitor, single point]"
CC(=O)Oc1ccc2c(=O)c(Oc3ccccc3)coc2c1OC(C)=O,,"inconclusive: 28.2 µM [inhibitor, partial curve]"
CC(C)Cc1nnc(NC(=O)Cc2cccs2)s1,,"inconclusive: 44.7 µM [inhibitor, partial curve]"
Cc1ccc(NC(=O)c2ccc3c(c2)NC(=O)CS3)nc1,inactive: -26.9%,
CNS(=O)(=O)c1cccc(C(=O)OCC(=O)c2ccc[nH]2)c1,inactive: -33.3%,

# Another view of some results above:
Compound | activity change, negative = inhibition | Potency
O=C(/C=C/c1c(F)cccc1Cl)c1ccc(O)cc1 | inactive: -6.12% | 
CCCN(CC(=O)Nc1ccccc1C)C(=O)c1cccc(-n2cnnn2)c1 | inactive: -10.7% | 
Cc1ccccc1-n1sc2cc(F)ccc2c1=O |  | active: 14.1 µM
CCn1cc(C(=O)O)c(=O)c2cc(F)c(N/N=C/c3ccccc3[N+](=O)[O-])cc21 |  | inconclusive: 10.6 µM [inhibitor, partial curve]
O=C(COC(=O)c1ccccn1)Nc1cccc(Cl)c1Cl | inactive: 7.26% | 
Cc1ccc(NC(=O)C(C)OC(=O)CCNS(=O)(=O)c2ccc(C)cc2)cc1 (centres undefined) |  | inconclusive: 10 µM [inhibitor, partial curve]
COc1ccc(C2C(C#N)=C(N)Oc3c2c(C)nn3-c2ccccc2)cc1Cn1nc(C)c([N+](=O)[O-])c1C (centres undefined) | inactive: -23.5% | 
CCOC(=O)n1cc(-c2cnc(CNC(=O)C(C)(c3ccccc3)c3ccccc3)o2)c2ccccc21 | inactive: -5.07% | 
NCCCS(=O)(=O)O |  | inactive
CC(=O)Oc1ccc2c(=O)c(Oc3ccccc3)coc2c1OC(C)=O |  | inconclusive: 28.2 µM [inhibitor, partial curve]
CC(C)Cc1nnc(NC(=O)Cc2cccs2)s1 |  | inconclusive: 44.7 µM [inhibitor, partial curve]
Cc1ccc(NC(=O)c2ccc3c(c2)NC(=O)CS3)nc1 | inactive: -26.9% | 

# (next part)

Compound,"activity change, negative = inhibition",Potency
CC(=O)c1ccc2c3c(cccc13)CC2,inactive: 9.98%,
COCCN(CCOC)S(=O)(=O)c1ccc(C(=O)NCCCN2CCOCC2)cc1,inactive: 0.234%,
O=C(Nc1c2c(nn1-c1ccc(F)cc1)CS(=O)C2)c1ccc2c(c1)OCO2 (centres undefined),,"inconclusive: 31.6 µM [inhibitor, full curve]"
Cc1cc(OCC(=O)NNC(=S)NCC2CCCO2)cc(C)c1Cl (centres undefined),,"inconclusive: 79.4 µM [inhibitor, single point]"
O=C(O)CC1COc2ccccc2N1S(=O)(=O)c1ccc(Br)cc1 (centres undefined),inactive: 3.19%,
Cc1ccccc1N1CC(C(=O)Nc2nnc(SCc3cccnc3)s2)CC1=O (centres undefined),,"inconclusive: 35.5 µM [inhibitor, full curve]"
Cc1cc(/C=C2\SC(=O)N(C)C2=O)c(C)n1-c1cccc(C(=O)O)c1,,"inconclusive: 56.2 µM [inhibitor, partial curve]"
CC(=O)N1CCc2c(sc(NC(=O)C3CC3)c2-c2nc3ccccc3s2)C1,inactive: -13.6%,
COC(=O)c1sc(NC(=O)c2ccc(Cn3cc(Cl)cn3)o2)c(C#N)c1C,,"inconclusive: 16.8 µM [inhibitor, partial curve]"
Cc1ccc2c(c1)/C(=N/N1C(=O)c3ccccc3C1=O)C(=O)N2,,"inconclusive: 56.2 µM [inhibitor, partial curve]"
Cc1ccc2nc(-c3ccc(SCC(=O)N4CCc5ccccc54)nc3)[nH]c2c1,inactive: -1.01%,
CN(CCC#N)C(=O)COC(=O)c1c2c(nc3ccccc13)/C(=C\c1ccco1)CC2,inconclusive: -63.9% [inhibitor],
O=C1C=CC2=C3c4cc(O)c(O)cc4CC3(O)COC2=C1O (centres undefined),,active: 4.47 µM
CCc1nnc(NS(=O)(=O)c2ccc(NCc3cc(Br)ccc3O)cc2)s1,,"inconclusive: 79.4 µM [inhibitor, partial curve]"
COc1cccc(CN(C)C(=O)c2ccc3nccnc3c2)c1,inactive: -7.13% [at 11.6 µM],
COc1ccc(NC(=O)/C(Cl)=C(/Cl)S(=O)Cc2ccccc2Cl)cn1 (centres undefined),,active: 11.2 µM
CO/N=C\CC(=O)Nc1ccc(Cl)cc1Cl,inactive: -6.12%,
O=C(Oc1ccc(N(Cc2cccs2)C2=NS(=O)(=O)c3ccccc32)cc1)c1ccccc1Cl,,"inconclusive: 89.1 µM [inhibitor, single point]"
O=C(COc1ccccc1F)OCC(=O)c1ccc([N+](=O)[O-])cc1,,"inconclusive: 20 µM [inhibitor, full curve]"
Cc1nc(SCC(=O)N2CCCC2=O)nc(C)c1C,,"inconclusive: 20 µM [inhibitor, full curve]"
CC(C)(C)c1ccc(-c2nc3[nH]c(=O)cc(NC(=O)c4ccco4)n3n2)cc1,inactive: -4.55%,
COc1ccc(F)cc1S(=O)(=O)NCc1ccccc1,inactive: 1.14%,
COc1ccc(S(=O)(=O)N2CCCCCC2)cc1C(=O)Nc1cccc(C)n1,,"inconclusive: 79.4 µM [inhibitor, partial curve]"
O=C(NCCCNC(=O)c1cccs1)c1cccs1,,"inconclusive: 89.1 µM [inhibitor, single point]"
